Patent US7851165B2, “Screening compounds for activity in modulating chloride ion transport” (Pharmos Bioscience A/S, priority 2005, dated 2010)
Results are given in words; binding and its absence hold for the method and conditions named. Binding seen in cells or lysates may run through a third protein. Some results given as binding are weak or reduced against the parent protein; the word gives no strength.

How the values were obtained:
[1] = target: T1, ClC-7 (expression product of the CLCN7 gene), endogenous, from solubilized mouse brain membranes (mouse) (UniProt O70496); assay: co-immunoprecipitation from solubilized mouse brain membranes with antibodies crosslinked to protein A sepharose, Western blot
T1 sequence (looked up): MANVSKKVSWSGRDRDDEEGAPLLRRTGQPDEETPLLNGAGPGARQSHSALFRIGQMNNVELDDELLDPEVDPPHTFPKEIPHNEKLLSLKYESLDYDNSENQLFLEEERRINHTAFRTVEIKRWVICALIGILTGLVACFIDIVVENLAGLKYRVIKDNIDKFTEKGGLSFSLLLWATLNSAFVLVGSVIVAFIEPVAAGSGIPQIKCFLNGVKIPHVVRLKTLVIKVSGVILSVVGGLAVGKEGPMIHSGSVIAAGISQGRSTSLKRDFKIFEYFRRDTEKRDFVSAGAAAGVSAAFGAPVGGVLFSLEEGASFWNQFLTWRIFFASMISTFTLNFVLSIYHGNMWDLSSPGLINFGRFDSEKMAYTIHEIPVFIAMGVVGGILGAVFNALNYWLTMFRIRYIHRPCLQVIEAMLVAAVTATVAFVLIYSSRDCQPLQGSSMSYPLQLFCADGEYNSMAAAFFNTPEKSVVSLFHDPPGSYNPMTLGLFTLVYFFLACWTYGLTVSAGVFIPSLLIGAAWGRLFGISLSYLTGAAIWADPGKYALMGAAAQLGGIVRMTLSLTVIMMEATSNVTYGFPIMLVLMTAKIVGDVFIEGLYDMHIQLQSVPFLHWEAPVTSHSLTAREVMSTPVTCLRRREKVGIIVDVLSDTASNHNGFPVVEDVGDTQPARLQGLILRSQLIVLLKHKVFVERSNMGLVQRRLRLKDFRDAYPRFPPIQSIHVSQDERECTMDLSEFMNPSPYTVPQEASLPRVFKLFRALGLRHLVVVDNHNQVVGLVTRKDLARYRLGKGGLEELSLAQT

[2] = target: T1, ClC-7 (expression product of the CLCN7 gene), endogenous, from solubilized mouse brain membranes (mouse); assay: co-immunoprecipitation from solubilized mouse brain membranes with Ostm1 or ClC-7 antibodies, Western blot
[3] = target: T1, ClC-7 (expression product of the CLCN7 gene), endogenous, from solubilized mouse brain membranes (mouse); assay: co-immunoprecipitation from mouse brain, Western blot (FIG. 3 part (d))

Measured: binding

B1: Ostm1 (Osteopetrosis-associated transmembrane protein 1), endogenous, from solubilized mouse brain membranes (other, UniProt Q8BGT0 35-338, looked up)
chain: ALPFTSSRHPGFADLLSEQQLLEVQDLTLSLLQGGGLGPLSLLPPDLPDLEPECRELLMDFANSSAELTACMVRSARPVRLCQTCYPLFQQVAIKMDNISRNIGNTSEGPRCGGSLLTADRMQIVLMVSEFFNSTWQEANCANCLTNNGEDLSNNTEDFLSLFNKTLACFEHNLQGHTYSLLPPKNYSEVCRNCKEAYKNLSLLYSQMQKLNGLENKAEPETHLCIDVEDAMNITRKLWSRTFNCSVTCSDTVSVVAVSVFILFLPVVFYLSSFLHSEQKKRKLILPKRLKSSTSFANIQENAT
modifications: N-linked glycosylation of the luminal domain
notes: Endogenous protein immunoprecipitated from Triton X-100 solubilized mouse brain membranes; also called product of the OSTM1 gene
binds: all assays above
